Some of the results follow. Residues, ends and D or L forms follow the SMILES beside them. *: point of attachment. Cbz = O=C(OCc1ccccc1)*
Legend:
Test in all cases: log2 fold change, soluble protein after heating vs DMSO (PISA); higher = thermal stabilisation; K562 cells, 10 uM, 30 min; active = over 0.2 and 3.5 SD of the protein, either way, in both replicates (recomputed)
IRAK-1-4 Inhibitor I = compound: C1COCCN1CCN2C3=CC=CC=C3N=C2NC(=O)C4=CC(=CC=C4)[N+](=O)[O-] [IRAK-1-4 Inhibitor I]
In short: (§1)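 K562 cells (2×10^6 cells/mL) were treated with 10 μM compound for 30 min, and aliquots were heated for 3 min over 48°C-58°C. Pooled aliquots were extracted in PBS with 0.5% NP-40 at 4°C, and the supernatant after 21,000xg for 90 min was measured by TMTpro 16plex LC-MS/MS with channel sums equalised. Reported thermal stability, relative to control samples and from duplicates, is a log2 fold change.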

By UniProt entry, the sequences of proteins in these tests, tags left out. Where a name states a change or a piece, a line headed by the entry shows the natural chain unless it says otherwise.
UniProt Q9P021, whole entry, looked up: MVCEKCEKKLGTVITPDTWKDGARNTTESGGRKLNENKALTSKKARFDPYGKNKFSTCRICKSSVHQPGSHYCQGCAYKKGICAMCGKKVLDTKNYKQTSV
UniProt P61201: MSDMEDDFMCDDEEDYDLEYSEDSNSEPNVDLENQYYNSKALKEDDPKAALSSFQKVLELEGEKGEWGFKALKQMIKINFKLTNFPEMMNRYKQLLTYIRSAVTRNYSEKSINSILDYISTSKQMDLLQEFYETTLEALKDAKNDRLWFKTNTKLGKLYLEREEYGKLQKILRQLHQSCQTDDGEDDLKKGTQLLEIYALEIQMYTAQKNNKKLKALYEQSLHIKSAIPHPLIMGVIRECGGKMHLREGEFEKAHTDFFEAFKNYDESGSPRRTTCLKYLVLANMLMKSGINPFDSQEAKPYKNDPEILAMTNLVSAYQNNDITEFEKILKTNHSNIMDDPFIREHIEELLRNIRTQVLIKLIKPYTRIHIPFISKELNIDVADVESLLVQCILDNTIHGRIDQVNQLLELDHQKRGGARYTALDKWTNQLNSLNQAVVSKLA
UniProt O75534: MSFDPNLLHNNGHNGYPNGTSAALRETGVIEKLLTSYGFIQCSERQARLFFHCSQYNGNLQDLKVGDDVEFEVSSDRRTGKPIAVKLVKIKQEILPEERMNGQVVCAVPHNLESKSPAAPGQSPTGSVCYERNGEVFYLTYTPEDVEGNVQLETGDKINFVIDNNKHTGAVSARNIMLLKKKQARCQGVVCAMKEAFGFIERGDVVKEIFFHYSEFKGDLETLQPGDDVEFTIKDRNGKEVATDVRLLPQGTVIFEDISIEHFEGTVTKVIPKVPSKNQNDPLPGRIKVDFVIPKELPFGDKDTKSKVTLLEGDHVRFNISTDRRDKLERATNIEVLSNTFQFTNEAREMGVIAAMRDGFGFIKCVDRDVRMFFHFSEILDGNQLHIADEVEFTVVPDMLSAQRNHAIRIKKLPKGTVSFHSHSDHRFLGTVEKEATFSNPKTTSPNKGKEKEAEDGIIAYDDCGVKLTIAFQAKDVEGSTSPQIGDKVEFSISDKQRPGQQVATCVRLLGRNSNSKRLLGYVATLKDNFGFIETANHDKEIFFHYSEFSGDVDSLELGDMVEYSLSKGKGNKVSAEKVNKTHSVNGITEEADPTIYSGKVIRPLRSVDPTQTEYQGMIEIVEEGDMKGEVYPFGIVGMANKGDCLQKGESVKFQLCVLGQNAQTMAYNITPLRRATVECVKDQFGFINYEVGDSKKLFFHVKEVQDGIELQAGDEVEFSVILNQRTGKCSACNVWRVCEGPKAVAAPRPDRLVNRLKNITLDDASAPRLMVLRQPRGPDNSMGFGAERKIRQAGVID
UniProt O14579: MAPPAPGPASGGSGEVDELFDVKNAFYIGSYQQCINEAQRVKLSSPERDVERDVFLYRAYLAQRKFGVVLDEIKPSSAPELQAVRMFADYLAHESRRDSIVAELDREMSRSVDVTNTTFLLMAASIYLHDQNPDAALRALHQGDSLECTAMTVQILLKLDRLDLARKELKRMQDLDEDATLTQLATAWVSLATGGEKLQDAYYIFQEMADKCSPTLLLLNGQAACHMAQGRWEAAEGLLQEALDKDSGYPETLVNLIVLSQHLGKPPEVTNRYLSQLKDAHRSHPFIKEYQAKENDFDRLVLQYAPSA
UniProt P13073, whole entry, looked up: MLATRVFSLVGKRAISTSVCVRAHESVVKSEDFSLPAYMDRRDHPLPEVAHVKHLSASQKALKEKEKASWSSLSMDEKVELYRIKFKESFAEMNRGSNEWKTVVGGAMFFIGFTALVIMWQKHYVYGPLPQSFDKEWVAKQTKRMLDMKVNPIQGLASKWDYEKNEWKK
UniProt P21964: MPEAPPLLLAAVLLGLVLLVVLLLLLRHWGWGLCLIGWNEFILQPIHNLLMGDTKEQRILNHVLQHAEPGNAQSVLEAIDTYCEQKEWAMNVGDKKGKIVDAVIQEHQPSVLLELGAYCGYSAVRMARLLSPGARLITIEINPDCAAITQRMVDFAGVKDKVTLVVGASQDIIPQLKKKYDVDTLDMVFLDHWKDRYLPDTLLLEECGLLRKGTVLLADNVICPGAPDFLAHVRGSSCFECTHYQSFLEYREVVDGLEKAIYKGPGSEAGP
UniProt P67870, whole entry, looked up: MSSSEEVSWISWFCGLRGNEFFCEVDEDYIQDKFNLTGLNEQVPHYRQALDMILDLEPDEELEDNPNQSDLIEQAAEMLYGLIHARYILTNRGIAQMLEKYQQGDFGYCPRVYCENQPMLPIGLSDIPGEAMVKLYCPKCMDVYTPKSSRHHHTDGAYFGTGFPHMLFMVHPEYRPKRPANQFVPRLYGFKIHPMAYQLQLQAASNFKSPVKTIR
UniProt Q86VX2, whole entry, looked up: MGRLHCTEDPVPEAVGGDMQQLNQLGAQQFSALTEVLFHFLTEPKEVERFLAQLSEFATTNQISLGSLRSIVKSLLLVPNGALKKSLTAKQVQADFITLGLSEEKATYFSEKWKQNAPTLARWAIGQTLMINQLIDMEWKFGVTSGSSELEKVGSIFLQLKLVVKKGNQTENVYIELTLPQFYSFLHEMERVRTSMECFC
UniProt P15954, whole entry, looked up: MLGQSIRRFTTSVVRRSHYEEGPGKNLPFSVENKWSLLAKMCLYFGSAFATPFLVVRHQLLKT
UniProt Q8IYK4: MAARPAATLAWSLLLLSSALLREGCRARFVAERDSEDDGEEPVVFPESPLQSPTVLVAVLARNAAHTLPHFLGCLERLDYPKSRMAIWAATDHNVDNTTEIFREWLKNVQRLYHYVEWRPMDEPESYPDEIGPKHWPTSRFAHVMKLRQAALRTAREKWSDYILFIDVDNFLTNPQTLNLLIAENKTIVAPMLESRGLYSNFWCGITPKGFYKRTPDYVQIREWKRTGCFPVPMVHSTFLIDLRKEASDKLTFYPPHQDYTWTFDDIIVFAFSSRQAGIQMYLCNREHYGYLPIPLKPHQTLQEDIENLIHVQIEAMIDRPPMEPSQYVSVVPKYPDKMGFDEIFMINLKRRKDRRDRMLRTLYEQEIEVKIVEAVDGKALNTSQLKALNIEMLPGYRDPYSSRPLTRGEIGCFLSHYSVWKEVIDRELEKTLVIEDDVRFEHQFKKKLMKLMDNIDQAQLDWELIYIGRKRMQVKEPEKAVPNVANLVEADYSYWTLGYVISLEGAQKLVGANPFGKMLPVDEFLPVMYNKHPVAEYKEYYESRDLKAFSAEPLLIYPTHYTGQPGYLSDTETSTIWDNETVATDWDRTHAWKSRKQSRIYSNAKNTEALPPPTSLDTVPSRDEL
UniProt O75976: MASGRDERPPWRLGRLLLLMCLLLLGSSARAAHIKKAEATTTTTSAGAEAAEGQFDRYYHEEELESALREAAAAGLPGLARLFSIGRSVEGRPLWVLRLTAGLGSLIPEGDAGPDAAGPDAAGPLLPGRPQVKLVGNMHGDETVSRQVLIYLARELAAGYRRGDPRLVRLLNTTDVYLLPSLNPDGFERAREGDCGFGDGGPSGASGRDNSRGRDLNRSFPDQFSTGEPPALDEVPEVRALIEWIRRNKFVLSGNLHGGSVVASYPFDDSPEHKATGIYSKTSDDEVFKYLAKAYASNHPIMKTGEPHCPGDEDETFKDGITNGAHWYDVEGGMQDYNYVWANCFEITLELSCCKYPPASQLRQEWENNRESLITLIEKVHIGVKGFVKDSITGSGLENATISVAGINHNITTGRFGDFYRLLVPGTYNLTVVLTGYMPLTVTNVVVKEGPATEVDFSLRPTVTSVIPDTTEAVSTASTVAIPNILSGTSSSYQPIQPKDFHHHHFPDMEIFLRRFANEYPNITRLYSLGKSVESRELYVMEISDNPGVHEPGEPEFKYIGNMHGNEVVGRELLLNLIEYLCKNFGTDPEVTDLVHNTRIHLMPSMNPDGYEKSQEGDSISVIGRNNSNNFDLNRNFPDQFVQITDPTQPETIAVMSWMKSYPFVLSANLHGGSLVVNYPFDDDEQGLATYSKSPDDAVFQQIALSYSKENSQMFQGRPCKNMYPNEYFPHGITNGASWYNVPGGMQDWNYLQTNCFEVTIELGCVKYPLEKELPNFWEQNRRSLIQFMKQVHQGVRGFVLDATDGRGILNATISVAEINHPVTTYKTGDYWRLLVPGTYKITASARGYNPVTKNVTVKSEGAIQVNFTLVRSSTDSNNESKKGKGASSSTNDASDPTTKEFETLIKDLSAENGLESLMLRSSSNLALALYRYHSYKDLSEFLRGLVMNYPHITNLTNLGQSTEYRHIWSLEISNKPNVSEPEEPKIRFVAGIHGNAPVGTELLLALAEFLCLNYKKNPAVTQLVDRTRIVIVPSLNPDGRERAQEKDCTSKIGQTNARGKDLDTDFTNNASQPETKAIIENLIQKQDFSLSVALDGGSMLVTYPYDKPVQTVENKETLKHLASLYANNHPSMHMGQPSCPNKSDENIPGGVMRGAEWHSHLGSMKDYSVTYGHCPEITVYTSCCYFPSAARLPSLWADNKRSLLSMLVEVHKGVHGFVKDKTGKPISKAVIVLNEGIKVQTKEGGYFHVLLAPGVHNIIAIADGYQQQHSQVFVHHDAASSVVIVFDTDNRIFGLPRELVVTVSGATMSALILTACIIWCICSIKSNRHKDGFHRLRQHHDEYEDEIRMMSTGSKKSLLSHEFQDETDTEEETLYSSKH
UniProt Q9BWP8: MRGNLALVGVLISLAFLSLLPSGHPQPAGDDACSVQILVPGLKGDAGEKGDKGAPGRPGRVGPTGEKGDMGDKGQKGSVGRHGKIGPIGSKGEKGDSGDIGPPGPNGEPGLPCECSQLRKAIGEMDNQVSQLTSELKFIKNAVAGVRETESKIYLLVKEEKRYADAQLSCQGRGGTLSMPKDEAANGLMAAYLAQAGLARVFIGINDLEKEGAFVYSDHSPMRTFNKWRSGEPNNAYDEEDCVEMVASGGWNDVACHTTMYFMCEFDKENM
UniProt P14854, whole entry, looked up: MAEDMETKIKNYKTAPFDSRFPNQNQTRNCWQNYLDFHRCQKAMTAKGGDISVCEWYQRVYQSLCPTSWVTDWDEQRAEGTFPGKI
UniProt P23786: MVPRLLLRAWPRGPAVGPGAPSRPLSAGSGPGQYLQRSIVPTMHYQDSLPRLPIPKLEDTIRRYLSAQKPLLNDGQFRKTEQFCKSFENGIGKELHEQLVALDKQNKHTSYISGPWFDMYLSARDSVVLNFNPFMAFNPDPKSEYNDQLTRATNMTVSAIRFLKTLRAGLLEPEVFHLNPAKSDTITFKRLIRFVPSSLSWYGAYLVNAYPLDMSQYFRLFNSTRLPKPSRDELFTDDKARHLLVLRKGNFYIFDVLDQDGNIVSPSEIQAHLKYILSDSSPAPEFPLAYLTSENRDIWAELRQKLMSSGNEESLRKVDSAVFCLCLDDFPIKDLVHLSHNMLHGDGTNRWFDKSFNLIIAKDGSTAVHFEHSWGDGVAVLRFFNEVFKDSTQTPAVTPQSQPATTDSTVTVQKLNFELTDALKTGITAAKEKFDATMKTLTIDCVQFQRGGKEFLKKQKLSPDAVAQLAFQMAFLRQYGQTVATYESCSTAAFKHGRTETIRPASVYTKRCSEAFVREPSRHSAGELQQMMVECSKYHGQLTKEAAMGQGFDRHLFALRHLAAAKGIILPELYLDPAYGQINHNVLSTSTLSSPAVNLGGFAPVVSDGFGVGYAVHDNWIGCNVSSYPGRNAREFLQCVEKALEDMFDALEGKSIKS
UniProt O75208: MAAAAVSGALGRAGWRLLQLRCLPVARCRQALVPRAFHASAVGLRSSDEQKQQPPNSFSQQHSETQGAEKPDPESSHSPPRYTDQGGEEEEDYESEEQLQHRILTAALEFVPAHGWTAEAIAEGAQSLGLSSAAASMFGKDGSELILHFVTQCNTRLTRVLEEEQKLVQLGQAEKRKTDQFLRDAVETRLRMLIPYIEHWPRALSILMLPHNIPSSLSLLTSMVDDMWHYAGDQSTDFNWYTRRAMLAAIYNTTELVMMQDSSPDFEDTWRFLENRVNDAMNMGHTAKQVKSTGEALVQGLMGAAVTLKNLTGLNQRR
UniProt Q53ET0: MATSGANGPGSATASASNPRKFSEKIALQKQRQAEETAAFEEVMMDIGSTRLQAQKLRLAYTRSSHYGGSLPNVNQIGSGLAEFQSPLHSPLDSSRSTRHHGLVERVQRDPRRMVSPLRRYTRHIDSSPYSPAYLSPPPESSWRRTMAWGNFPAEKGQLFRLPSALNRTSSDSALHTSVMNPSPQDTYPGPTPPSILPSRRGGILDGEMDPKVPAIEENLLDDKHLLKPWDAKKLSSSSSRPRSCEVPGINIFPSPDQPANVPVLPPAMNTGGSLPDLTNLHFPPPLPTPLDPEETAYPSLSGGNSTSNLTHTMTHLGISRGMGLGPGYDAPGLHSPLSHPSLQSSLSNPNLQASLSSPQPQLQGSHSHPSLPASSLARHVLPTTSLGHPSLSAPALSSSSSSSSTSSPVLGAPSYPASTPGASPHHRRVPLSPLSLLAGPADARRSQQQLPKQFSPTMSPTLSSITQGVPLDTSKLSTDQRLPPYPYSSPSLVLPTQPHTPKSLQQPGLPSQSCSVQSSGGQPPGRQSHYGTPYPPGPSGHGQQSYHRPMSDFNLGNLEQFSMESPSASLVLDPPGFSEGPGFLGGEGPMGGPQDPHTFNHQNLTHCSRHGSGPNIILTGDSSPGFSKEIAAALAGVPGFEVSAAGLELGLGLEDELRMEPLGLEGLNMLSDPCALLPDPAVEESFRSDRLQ

ibrutinib = compound: C=CC(=O)N1CCC[C@@H](n2nc(-c3ccc(Oc4ccccc4)cc3)c3c(N)ncnc32)C1 [ibrutinib]
In short: as §1

[1] = compound: CC(=O)c1cnc2ccc(-c3cc(Cl)c(O)c(Cl)c3)nc2c1N[C@H]1CC[C@H](CN(C)C)CC1
In short: as §1

ralimetinib = compound: CC(C)(C)Cn1c(N)nc2ccc(-c3[nH]c(C(C)(C)C)nc3-c3ccc(F)cc3)nc21 [ralimetinib]
In short: as §1

[2] = compound: CC(C)(O)CC(=O)NCCn1ccc2ncnc(Nc3ccc(Oc4cccc(C(F)(F)F)c4)c(Cl)c3)c21
In short: as §1

[3] = compound: CC(C)C1=C2N=C(C=C(N2N=C1)NCC3=CC=CC=C3)NCCCCCCN
In short: as §1

[4] = compound: CC(C)C[C@@H](C=O)NC(=O)[C@H](CC(C)C)NC(=O)[C@H](CC(C)C)NC(=O)OCc1ccccc1
In short: as §1

pinometostat = compound: CC(C)N(C[C@H]1O[C@@H](n2cnc3c(N)ncnc32)[C@H](O)[C@@H]1O)[C@H]1C[C@@H](CCc2nc3cc(C(C)(C)C)ccc3[nH]2)C1 [pinometostat]
In short: as §1

[5] = compound: CC1=C(C(CC(=O)N1)C2=CC=C(C=C2)C(F)(F)F)C(=O)NC3=C(C=C4C(=C3)C=NN4)F
In short: as §1

[6] = compound: CC1=C(C2=C(C=C1)C(=O)C3=CC=CC=C3N2CCCN)C
In short: as §1

Target | log2 fold change (IRAK-1-4 Inhibitor I) | log2 fold change (ibrutinib) | log2 fold change [1] | log2 fold change (ralimetinib) | log2 fold change [2] | log2 fold change [3] | log2 fold change [4] | log2 fold change (pinometostat) | log2 fold change [5] | log2 fold change [6]
CRACR2A isoform 2 (UniProt Q9BSW2) | inactive: 0.012 | inactive: 0.002 | inactive: -0.015 | inactive: 0.009 | inactive: 0.045 | inactive: 0.153 | inactive: 0.037 | inactive: -0.005 | inactive: -0.013 | inactive: 0.111
CRIPT (UniProt Q9P021) | inactive: -0.039 | inactive: 0.067 | inactive: 0.069 | inactive: -0.084 | inactive: -0.092 | inactive: 0.066 | inactive: 0.078 | inactive: 0.012 | inactive: -0.013 | inactive: -0.01
COPS2 (UniProt P61201) | inactive: 0.019 | inactive: -0.015 | inactive: -0.024 | inactive: -0.046 | inactive: -0.019 | inactive: 0.013 | inactive: -0.026 | inactive: -0.052 | inactive: -0.021 | inactive: 0.012
CRBN (UniProt Q96SW2) | inactive: 0.043 | inactive: -0.003 | inactive: -0.05 | inactive: -0.036 | inactive: -0.001 | inactive: 0.05 | inactive: 0.031 | inactive: 0.02 | inactive: 0.053 | inactive: -0.006
CSNK2A1 (UniProt P68400) | inactive: 0.022 | inactive: 0.029 | active: 0.245 | inactive: -0.082 | inactive: 0.006 | inactive: -0.064 | inactive: -0.021 | inactive: 0.103 | – | inactive: 0.159
CSDE1 isoform 4 (UniProt O75534) | inactive: -0.142 | inactive: -0.039 | inactive: 0.004 | inactive: 0.184 | inactive: 0.025 | inactive: -0.313 | inactive: 0.156 | inactive: 0.323 | inactive: 0.007 | inactive: -0.06
COPE (UniProt O14579) | inactive: -0.017 | inactive: -0.058 | inactive: -0.054 | inactive: -0.062 | inactive: -0.027 | inactive: 0.069 | inactive: -0.01 | inactive: -0.026 | inactive: -0.01 | inactive: -0.155
CPNE2 (UniProt Q96FN4) | inactive: 0.057 | inactive: -0.029 | inactive: 0.187 | inactive: -0.031 | inactive: -0.095 | inactive: -0.127 | inactive: 0.009 | inactive: 0.08 | inactive: 0.016 | inactive: 0.076
CSNK2A2 (UniProt P19784) | inactive: 0.033 | inactive: 0.006 | active: 0.585 | inactive: 0.001 | inactive: -0.065 | inactive: 0.026 | inactive: -0.029 | inactive: 0.149 | – | active: 0.235
COX4I1 (UniProt P13073) | inactive: 0.024 | inactive: 0.017 | inactive: -0.008 | inactive: -0.021 | inactive: 0.028 | inactive: 0.037 | inactive: 0.014 | inactive: -0.012 | inactive: 0.017 | inactive: 0.002
COMT (UniProt P21964) | inactive: 0.01 | inactive: -0.032 | inactive: -0.065 | inactive: -0.043 | inactive: -0.007 | inactive: 0.006 | inactive: -0.039 | inactive: -0.024 | – | inactive: 0.053
CPPED1 (UniProt Q9BRF8) | inactive: -0.003 | inactive: -0.068 | inactive: -0.006 | inactive: -0.02 | inactive: -0.046 | inactive: 0.044 | inactive: -0.053 | inactive: -0.069 | inactive: 0.015 | inactive: -0.052
CSNK2B (UniProt P67870) | inactive: -0.003 | inactive: -0.014 | active: 0.266 | inactive: -0.006 | inactive: -0.021 | inactive: -0.087 | inactive: -0.003 | inactive: 0.044 | – | inactive: 0.096
COMMD7 (UniProt Q86VX2) | inactive: 0.072 | inactive: 0.035 | inactive: 0.042 | inactive: 0.055 | inactive: 0.072 | inactive: -0.076 | inactive: 0.03 | inactive: -0.036 | inactive: -0.096 | inactive: 0.029
COX7C (UniProt P15954) | inactive: -0.013 | inactive: 0.057 | inactive: -0.013 | inactive: 0.301 | inactive: 0.041 | inactive: 0.184 | inactive: 0.074 | inactive: 0.092 | – | inactive: 0.009
COLGALT2 (UniProt Q8IYK4) | inactive: -0.103 | inactive: -0.038 | inactive: 0.02 | inactive: 0.024 | inactive: 0.037 | inactive: -0.036 | inactive: 0.041 | inactive: 0.038 | inactive: 0.023 | inactive: -0.044
COMTD1 (UniProt Q86VU5) | inactive: -0.02 | inactive: -0.03 | inactive: 0.001 | inactive: -0.033 | inactive: -0.155 | inactive: 0.067 | inactive: -0.01 | inactive: -0.072 | inactive: 0 | inactive: 0.122
COMMD3 (UniProt Q9UBI1) | inactive: -0.065 | inactive: -0.086 | inactive: -0.055 | inactive: 0.121 | – | – | inactive: -0.058 | inactive: 0 | inactive: 0.038 | inactive: 0.11
CPD (UniProt O75976) | inactive: -0.011 | inactive: -0.018 | inactive: -0.015 | inactive: -0.03 | inactive: -0.058 | inactive: -0.126 | inactive: 0.077 | inactive: 0.002 | – | inactive: -0.019
COLEC11 isoform 10 (UniProt Q9BWP8) | inactive: 0.194 | inactive: -0.013 | inactive: -0.032 | – | inactive: -0.15 | – | – | inactive: -0.072 | inactive: 0.005 | –
CPSF6 isoform 2 (UniProt Q16630) | inactive: -0.047 | inactive: 0 | active: -0.599 | inactive: -0.017 | inactive: 0.02 | inactive: -0.029 | inactive: -0.053 | inactive: 0.004 | – | inactive: 0.195
COX6B1 (UniProt P14854) | inactive: -0.046 | inactive: -0.038 | inactive: -0.013 | inactive: -0.144 | inactive: -0.103 | inactive: 0.038 | inactive: -0.01 | inactive: 0.017 | – | inactive: 0.103
CPEB2 isoform 9 (UniProt Q7Z5Q1) | inactive: 0.038 | inactive: 0.111 | inactive: -0.103 | inactive: 0.005 | inactive: 0.064 | inactive: -0.207 | inactive: 0.093 | inactive: -0.028 | – | inactive: 0.014
COX6A1 (UniProt P12074) | inactive: 0.169 | inactive: 0.093 | inactive: -0.033 | inactive: -0.075 | – | inactive: 0.072 | inactive: 0.021 | inactive: 0.131 | inactive: 0.119 | inactive: 0.027
COPS4 (UniProt Q9BT78) | inactive: 0.015 | inactive: 0.043 | inactive: 0.01 | inactive: -0.004 | inactive: -0.014 | inactive: 0.009 | inactive: -0.008 | inactive: -0.048 | – | inactive: 0.028
CPT2 (UniProt P23786) | inactive: 0.101 | inactive: 0.095 | inactive: 0.201 | inactive: -0.079 | active: -0.704 | inactive: -0.488 | inactive: 0.16 | inactive: -0.145 | – | inactive: 0.256
COQ9 (UniProt O75208) | inactive: 0.005 | inactive: 0.03 | inactive: -0.007 | inactive: -0.055 | inactive: 0.085 | inactive: -0.092 | inactive: -0.024 | inactive: -0.062 | – | inactive: 0.043
CRTC2 (UniProt Q53ET0) | inactive: -0.024 | inactive: -0.048 | inactive: -0.151 | inactive: 0 | inactive: -0.053 | inactive: -0.058 | inactive: -0.032 | inactive: 0.01 | – | inactive: 0.101

Single entries from the entries so far.
For log2 fold change [4], CSNK2B (UniProt P67870) shows inactive: -0.003
For log2 fold change [4], COQ9 (UniProt O75208) shows inactive: -0.024

— the supplement of paper PMC10849652
